According to the supplement of paper PMC10849652:
The other results are listed elsewhere or left out.

Protein sequences, listed by entry. Tags and fused reporters are not part of them. Lines headed by an entry give the natural chain unless they say otherwise; changes in a name come on top.
UniProt P22102: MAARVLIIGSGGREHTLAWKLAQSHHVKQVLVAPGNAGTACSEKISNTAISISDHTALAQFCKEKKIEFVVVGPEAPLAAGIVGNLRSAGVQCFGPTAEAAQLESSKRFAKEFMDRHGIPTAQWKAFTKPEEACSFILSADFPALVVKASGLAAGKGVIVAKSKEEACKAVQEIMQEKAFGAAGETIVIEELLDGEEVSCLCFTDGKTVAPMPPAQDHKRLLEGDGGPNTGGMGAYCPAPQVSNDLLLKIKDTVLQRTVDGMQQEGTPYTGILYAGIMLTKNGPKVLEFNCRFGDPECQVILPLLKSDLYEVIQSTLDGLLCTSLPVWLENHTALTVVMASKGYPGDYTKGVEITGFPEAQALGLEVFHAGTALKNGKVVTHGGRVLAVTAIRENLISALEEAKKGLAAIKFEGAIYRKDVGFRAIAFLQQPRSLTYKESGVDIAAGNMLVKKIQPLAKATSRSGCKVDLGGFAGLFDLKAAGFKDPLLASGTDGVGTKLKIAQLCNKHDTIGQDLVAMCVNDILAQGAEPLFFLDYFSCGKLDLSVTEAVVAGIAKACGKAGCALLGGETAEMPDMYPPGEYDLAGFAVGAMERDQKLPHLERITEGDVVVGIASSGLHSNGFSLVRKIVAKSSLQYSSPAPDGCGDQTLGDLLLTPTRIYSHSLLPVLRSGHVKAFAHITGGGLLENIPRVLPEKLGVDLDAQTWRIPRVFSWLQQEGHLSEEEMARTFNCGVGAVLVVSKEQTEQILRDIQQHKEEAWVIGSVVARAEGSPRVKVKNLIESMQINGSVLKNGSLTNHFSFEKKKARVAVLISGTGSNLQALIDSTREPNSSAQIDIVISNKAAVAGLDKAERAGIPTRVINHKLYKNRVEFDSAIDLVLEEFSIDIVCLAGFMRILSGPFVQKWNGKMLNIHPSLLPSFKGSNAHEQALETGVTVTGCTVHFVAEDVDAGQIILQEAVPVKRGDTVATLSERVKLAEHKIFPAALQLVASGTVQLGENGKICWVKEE
UniProt Q9C0B1, whole entry, looked up: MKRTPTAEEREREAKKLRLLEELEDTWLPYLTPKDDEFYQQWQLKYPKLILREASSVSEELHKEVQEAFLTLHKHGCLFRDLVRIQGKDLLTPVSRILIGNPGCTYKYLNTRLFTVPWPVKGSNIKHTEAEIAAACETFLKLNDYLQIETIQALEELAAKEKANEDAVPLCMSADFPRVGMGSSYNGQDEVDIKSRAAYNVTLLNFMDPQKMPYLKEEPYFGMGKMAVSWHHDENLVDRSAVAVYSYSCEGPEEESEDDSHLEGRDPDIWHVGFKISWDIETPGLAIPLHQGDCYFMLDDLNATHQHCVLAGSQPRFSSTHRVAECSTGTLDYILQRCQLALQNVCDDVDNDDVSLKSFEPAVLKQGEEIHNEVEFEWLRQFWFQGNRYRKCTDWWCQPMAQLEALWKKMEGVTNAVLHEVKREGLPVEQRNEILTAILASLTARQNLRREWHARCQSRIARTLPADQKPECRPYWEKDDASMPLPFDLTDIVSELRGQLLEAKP
UniProt Q9NZ52: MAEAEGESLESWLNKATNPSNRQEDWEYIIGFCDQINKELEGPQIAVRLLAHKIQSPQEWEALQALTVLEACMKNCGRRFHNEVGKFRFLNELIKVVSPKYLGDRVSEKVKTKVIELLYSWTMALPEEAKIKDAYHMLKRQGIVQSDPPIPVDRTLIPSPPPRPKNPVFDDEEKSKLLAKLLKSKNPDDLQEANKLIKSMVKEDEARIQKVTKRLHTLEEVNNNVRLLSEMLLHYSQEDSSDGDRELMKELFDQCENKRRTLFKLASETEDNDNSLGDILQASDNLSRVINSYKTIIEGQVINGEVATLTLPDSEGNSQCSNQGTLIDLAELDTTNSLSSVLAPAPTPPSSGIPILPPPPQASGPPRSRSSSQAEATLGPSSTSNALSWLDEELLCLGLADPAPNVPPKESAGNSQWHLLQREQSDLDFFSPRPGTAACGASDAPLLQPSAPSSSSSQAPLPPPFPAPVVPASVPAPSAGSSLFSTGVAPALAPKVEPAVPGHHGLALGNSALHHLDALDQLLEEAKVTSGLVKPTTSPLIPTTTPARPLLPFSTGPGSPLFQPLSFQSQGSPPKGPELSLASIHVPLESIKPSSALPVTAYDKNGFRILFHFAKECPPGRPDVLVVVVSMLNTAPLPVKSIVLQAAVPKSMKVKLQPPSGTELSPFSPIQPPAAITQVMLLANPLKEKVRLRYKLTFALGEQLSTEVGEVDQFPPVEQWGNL
UniProt Q6NT46: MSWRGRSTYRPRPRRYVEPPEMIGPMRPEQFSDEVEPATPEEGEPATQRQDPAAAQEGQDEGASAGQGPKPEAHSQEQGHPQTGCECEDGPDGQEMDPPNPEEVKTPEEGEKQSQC
UniProt P51570: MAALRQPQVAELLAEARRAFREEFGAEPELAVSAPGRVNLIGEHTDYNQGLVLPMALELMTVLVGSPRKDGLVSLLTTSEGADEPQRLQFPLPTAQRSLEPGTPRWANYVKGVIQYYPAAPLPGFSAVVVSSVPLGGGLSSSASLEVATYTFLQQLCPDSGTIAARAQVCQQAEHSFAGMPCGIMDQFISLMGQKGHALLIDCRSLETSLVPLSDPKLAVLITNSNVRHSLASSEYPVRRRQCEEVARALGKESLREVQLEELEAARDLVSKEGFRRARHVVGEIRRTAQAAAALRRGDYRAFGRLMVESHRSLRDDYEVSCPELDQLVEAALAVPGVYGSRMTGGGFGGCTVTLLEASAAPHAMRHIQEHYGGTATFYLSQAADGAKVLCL
UniProt Q9NY12: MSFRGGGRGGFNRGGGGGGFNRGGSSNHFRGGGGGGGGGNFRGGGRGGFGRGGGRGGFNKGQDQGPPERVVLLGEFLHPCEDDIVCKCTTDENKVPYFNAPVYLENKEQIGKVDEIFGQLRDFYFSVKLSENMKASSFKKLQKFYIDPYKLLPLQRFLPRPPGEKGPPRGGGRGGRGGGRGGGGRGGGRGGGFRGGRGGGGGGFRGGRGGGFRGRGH
UniProt Q01415: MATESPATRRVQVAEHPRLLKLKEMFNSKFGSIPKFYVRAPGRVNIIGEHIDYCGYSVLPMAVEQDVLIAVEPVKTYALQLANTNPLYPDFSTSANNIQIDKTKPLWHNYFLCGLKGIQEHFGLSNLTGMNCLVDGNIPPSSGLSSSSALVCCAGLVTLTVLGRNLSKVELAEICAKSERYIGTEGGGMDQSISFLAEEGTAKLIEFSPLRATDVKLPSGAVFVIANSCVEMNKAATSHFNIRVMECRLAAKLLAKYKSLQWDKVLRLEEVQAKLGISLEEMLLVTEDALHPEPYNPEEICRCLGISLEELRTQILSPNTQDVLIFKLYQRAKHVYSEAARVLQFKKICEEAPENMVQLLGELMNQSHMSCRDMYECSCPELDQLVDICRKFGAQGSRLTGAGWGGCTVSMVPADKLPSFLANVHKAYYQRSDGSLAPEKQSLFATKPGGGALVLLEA
UniProt Q16595: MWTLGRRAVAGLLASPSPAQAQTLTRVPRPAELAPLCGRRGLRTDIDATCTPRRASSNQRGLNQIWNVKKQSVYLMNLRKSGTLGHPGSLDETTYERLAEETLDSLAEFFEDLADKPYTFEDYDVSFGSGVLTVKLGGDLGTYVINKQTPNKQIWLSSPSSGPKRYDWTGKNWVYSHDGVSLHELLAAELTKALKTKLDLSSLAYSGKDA
UniProt P15407: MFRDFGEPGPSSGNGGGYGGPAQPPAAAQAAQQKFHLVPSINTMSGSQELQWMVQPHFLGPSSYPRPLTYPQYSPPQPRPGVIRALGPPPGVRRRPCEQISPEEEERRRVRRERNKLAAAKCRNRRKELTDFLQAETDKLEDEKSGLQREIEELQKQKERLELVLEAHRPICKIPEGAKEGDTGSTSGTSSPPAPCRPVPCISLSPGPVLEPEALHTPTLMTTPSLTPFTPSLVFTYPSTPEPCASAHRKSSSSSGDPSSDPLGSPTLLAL
UniProt P51114, whole entry, looked up: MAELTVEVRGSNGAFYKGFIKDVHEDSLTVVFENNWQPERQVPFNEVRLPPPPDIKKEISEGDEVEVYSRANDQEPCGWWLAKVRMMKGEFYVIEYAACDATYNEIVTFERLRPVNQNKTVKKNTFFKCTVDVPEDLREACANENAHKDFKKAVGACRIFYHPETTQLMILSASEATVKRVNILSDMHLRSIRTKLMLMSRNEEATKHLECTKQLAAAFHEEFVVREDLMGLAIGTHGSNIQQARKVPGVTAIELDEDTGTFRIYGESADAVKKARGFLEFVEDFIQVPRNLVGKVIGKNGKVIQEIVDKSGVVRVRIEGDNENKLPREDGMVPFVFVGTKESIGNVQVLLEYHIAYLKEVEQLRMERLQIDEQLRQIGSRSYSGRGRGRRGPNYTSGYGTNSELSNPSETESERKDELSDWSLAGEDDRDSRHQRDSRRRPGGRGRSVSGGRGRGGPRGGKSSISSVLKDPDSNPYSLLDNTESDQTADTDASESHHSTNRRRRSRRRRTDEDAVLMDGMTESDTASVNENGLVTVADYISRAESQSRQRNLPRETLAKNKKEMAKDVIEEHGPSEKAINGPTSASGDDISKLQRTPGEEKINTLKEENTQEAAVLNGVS
UniProt O75600: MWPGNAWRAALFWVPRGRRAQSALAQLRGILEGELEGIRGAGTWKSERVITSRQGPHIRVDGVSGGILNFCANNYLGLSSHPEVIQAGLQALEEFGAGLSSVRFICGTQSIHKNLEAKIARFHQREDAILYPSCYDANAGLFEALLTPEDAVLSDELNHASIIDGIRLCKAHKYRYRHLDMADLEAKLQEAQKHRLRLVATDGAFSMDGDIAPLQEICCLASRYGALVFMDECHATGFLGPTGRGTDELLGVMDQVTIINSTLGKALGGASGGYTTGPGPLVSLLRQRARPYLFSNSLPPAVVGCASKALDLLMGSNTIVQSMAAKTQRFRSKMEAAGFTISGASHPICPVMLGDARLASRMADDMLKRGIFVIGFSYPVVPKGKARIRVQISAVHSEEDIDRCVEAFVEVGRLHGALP
UniProt Q96CU9: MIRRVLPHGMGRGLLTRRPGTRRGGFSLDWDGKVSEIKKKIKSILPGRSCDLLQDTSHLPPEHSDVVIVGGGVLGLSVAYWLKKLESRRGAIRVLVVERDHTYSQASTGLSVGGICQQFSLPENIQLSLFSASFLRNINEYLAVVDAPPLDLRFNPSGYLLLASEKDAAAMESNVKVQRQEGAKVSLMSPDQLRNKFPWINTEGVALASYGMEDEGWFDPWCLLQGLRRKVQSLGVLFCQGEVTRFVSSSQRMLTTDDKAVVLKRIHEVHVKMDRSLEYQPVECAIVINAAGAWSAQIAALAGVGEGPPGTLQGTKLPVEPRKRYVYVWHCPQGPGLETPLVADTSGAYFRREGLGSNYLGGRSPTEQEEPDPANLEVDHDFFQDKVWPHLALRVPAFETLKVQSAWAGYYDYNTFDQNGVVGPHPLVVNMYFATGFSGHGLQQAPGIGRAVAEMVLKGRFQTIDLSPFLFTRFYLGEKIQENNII
UniProt P85037: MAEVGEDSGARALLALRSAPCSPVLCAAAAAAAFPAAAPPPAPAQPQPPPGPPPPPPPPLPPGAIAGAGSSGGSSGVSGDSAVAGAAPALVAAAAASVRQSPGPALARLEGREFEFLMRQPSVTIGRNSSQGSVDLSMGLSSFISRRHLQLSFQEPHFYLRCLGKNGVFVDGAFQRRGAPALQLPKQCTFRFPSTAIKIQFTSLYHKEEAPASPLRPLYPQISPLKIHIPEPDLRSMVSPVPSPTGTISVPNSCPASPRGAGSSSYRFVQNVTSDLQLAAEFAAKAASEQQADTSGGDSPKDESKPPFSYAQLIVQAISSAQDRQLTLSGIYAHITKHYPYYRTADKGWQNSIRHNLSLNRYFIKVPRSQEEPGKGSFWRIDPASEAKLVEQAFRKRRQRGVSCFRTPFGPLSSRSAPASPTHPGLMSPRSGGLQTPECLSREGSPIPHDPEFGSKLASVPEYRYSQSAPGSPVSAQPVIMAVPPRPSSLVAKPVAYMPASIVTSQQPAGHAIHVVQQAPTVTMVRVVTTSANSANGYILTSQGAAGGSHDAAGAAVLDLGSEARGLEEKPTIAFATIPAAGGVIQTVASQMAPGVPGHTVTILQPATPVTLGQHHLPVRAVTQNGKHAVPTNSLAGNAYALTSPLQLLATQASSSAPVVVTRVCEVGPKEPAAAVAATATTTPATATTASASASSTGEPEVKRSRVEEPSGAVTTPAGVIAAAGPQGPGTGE
UniProt P04406: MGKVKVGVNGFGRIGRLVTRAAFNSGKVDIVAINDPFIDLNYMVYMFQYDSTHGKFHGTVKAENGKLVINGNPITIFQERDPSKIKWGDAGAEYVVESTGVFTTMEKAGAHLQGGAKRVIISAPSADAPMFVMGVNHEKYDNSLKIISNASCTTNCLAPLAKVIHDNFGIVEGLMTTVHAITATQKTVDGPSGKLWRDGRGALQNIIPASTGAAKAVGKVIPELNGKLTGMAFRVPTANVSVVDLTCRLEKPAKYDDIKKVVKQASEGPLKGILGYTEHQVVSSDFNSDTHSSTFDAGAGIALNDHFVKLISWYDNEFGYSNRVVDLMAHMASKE

Columns and labels:
Assay in all cases: log2 fold change, soluble protein after heating vs DMSO (PISA); higher = thermal stabilisation; K562 cells, 10 uM, 30 min; active = over 0.2 and 3.5 SD of the protein, either way, in both replicates (recomputed)
[1] = compound: COC1=CC=C(C=C1)CN2C=CC3=C2C=C(C=C3)C(=O)NO
Method in brief: (§1)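 K562 cells (2×10^6 cells/mL) were treated with 10 μM compound for 30 min, and aliquots were heated for 3 min over 48°C-58°C. Pooled aliquots were extracted in PBS with 0.5% NP-40 at 4°C, and the supernatant after 21,000xg for 90 min was measured by TMTpro 16plex LC-MS/MS with channel sums equalised. Reported thermal stability, relative to control samples and from duplicates, is a log2 fold change.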

filanesib = compound: CON(C)C(=O)N1N=C(c2cc(F)ccc2F)S[C@@]1(CCCN)c1ccccc1 [filanesib]
Method in brief: as §1

zotarolimus = compound: CO[C@H]1C[C@@H]2CC[C@@H](C)[C@@](O)(O2)C(=O)C(=O)N2CCCC[C@H]2C(=O)O[C@H]([C@H](C)C[C@@H]2CC[C@H](n3cnnn3)[C@H](OC)C2)CC(=O)[C@H](C)/C=C(\C)[C@@H](O)[C@@H](OC)C(=O)[C@H](C)C[C@H](C)/C=C/C=C/C=C/1C [zotarolimus]
Method in brief: as §1

idasanutlin = compound: COc1cc(C(=O)O)ccc1NC(=O)[C@@H]1N[C@@H](CC(C)(C)C)[C@](C#N)(c2ccc(Cl)cc2F)[C@H]1c1cccc(Cl)c1F [idasanutlin]
Method in brief: as §1

alisertib = compound: COc1cc(Nc2ncc3c(n2)-c2ccc(Cl)cc2C(c2c(F)cccc2OC)=NC3)ccc1C(=O)O [alisertib]
Method in brief: as §1

[2] = compound: COc1cc2nc(-c3cc(F)ccc3O)nc(N[C@@H]3CNC[C@H]3C(C)(C)O)c2cc1OC
Method in brief: as §1

gefitinib = compound: COc1cc2ncnc(Nc3ccc(F)c(Cl)c3)c2cc1OCCCN1CCOCC1 [gefitinib]
Method in brief: as §1

[3] = compound: COc1cccc2cc(-c3nc([C@H]4CC[C@H](C(=O)O)CC4)n4ncnc(N)c34)[nH]c12
Method in brief: as §1

lapatinib = compound: CS(=O)(=O)CCNCc1ccc(-c2ccc3ncnc(Nc4ccc(OCc5cccc(F)c5)c(Cl)c4)c3c2)o1 [lapatinib]
Method in brief: as §1

pictilisib = compound: CS(=O)(=O)N1CCN(Cc2cc3nc(-c4cccc5[nH]ncc45)nc(N4CCOCC4)c3s2)CC1 [pictilisib]
Method in brief: as §1

| Target | log2 fold change [1] | log2 fold change (filanesib) | log2 fold change (zotarolimus) | log2 fold change (idasanutlin) | log2 fold change (alisertib) | log2 fold change [2] | log2 fold change (gefitinib) | log2 fold change [3] | log2 fold change (lapatinib) | log2 fold change (pictilisib) |
| --- | --- | --- | --- | --- | --- | --- | --- | --- | --- | --- |
| GART (UniProt P22102) | inactive: -0.002 | inactive: -0.16 | inactive: 0.068 | inactive: -0.052 | inactive: -0.008 | inactive: -0.014 | inactive: 0.145 | inactive: -0.021 | inactive: -0.008 | inactive: -0.026 |
| FPGT (UniProt O14772) | inactive: 0.001 | inactive: -0.088 | inactive: -0.027 | inactive: -0.078 | inactive: -0.048 | inactive: 0.029 | inactive: -0.036 | inactive: 0.048 | inactive: 0.042 | inactive: -0.021 |
| FTO (UniProt Q9C0B1) | inactive: -0.134 | inactive: -0.04 | inactive: -0.029 | inactive: 0.046 | inactive: -0.044 | inactive: 0.039 | inactive: 0.004 | inactive: -0.013 | inactive: -0.021 | inactive: 0.088 |
| GGA3 (UniProt Q9NZ52) | inactive: -0.081 | inactive: 0.037 | inactive: 0.053 | inactive: 0.056 | inactive: -0.035 | inactive: 0.093 | inactive: 0.018 | inactive: -0.043 | inactive: 0.003 | inactive: -0.048 |
| GAGE2A (UniProt Q6NT46) | inactive: -0.023 | inactive: -0.033 | inactive: 0.079 | inactive: 0.079 | inactive: -0.054 | inactive: -0.072 | inactive: 0.018 | inactive: 0.072 | inactive: -0.059 | inactive: 0.104 |
| GALK1 isoform 2 (UniProt P51570) | inactive: -0.023 | inactive: -0.201 | inactive: 0.012 | inactive: -0.106 | inactive: -0.125 | inactive: -0.049 | inactive: -0.005 | inactive: 0.036 | inactive: 0.147 | inactive: -0.05 |
| GAR1 (UniProt Q9NY12) | inactive: -0.064 | inactive: 0.376 | inactive: 0.03 | inactive: 0.209 | inactive: -0.067 | inactive: -0.003 | inactive: 0.002 | inactive: -0.095 | inactive: 0.023 | inactive: -0.091 |
| GALK2 (UniProt Q01415) | inactive: -0.03 | inactive: -0.046 | inactive: -0.011 | inactive: -0.073 | inactive: -0.054 | inactive: -0.012 | inactive: 0.005 | inactive: 0.068 | inactive: -0.027 | inactive: 0.088 |
| FXN (UniProt Q16595) | inactive: -0.143 | inactive: -0.09 | inactive: 0.022 | inactive: -0.045 | inactive: 0.027 | inactive: -0.049 | inactive: -0.052 | inactive: 0.022 | inactive: -0.014 | inactive: -0.026 |
| GALNT7 (UniProt Q86SF2) | inactive: -0.011 | inactive: -0.048 | inactive: 0 | inactive: -0.062 | inactive: -0.087 | inactive: -0.149 | inactive: -0.005 | inactive: 0.002 | inactive: -0.019 | inactive: 0.043 |
| GGNBP2 (UniProt Q9H3C7) | inactive: -0.14 | inactive: -0.046 | inactive: 0.195 | inactive: -0.037 | inactive: 0.052 | inactive: -0.01 | inactive: 0.108 | inactive: 0.193 | inactive: 0.034 | inactive: 0.004 |
| FOSL1 (UniProt P15407) | inactive: -0.131 | inactive: 0.093 | inactive: -0.07 | inactive: 0.084 | inactive: -0.178 | inactive: 0.091 | inactive: 0.032 | inactive: -0.029 | inactive: 0.125 | inactive: 0.001 |
| GABPA (UniProt Q06546) | inactive: 0.01 | inactive: -0.111 | inactive: 0.063 | inactive: -0.025 | inactive: -0.002 | inactive: -0.134 | inactive: 0.032 | inactive: 0.029 | inactive: 0.048 | inactive: 0.02 |
| FRYL (UniProt O94915) | inactive: -0.033 | inactive: 0.042 | inactive: 0.002 | inactive: -0.039 | inactive: -0.1 | inactive: 0.011 | inactive: -0.034 | inactive: 0.022 | inactive: 0.043 | inactive: 0.054 |
| FXR1 (UniProt P51114) | inactive: -0.068 | inactive: 0.383 | inactive: 0.069 | inactive: 0.304 | inactive: -0.143 | inactive: -0.109 | inactive: 0.005 | inactive: -0.225 | inactive: 0.09 | inactive: -0.05 |
| GDI1 (UniProt P31150) | inactive: -0.073 | inactive: -0.043 | inactive: 0.01 | inactive: -0.056 | inactive: -0.067 | inactive: 0.045 | inactive: -0.011 | inactive: 0.037 | inactive: -0.032 | inactive: -0.006 |
| FXR2 (UniProt P51116) | inactive: 0.157 | inactive: 0.04 | inactive: 0.119 | inactive: 0.282 | inactive: -0.159 | inactive: -0.003 | inactive: -0.02 | inactive: -0.179 | inactive: -0.01 | inactive: 0.039 |
| GGA1 isoform 6 (UniProt Q9UJY5) | inactive: -0.036 | inactive: 0.036 | inactive: 0.007 | inactive: -0.05 | inactive: -0.014 | inactive: 0.03 | inactive: 0.031 | inactive: 0.063 | inactive: 0.023 | inactive: 0.054 |
| GCAT isoform 2 (UniProt O75600) | inactive: -0.147 | inactive: -0.132 | inactive: 0.04 | inactive: 0.125 | inactive: 0.022 | inactive: -0.113 | inactive: 0.068 | inactive: 0.009 | inactive: -0.02 | inactive: 0.105 |
| FOXRED1 (UniProt Q96CU9) | inactive: 0.024 | inactive: -0.042 | inactive: 0.004 | inactive: -0.121 | inactive: -0.018 | inactive: 0.052 | inactive: 0.002 | inactive: 0.064 | inactive: -0.035 | inactive: 0.065 |
| GEMIN4 (UniProt P57678) | inactive: -0.051 | inactive: 0.095 | inactive: 0.018 | inactive: 0.271 | inactive: -0.305 | inactive: -0.018 | inactive: -0.058 | inactive: -0.323 | inactive: 0.16 | inactive: -0.021 |
| FUNDC2 (UniProt Q9BWH2) | inactive: -0.057 | inactive: -0.052 | inactive: -0.035 | inactive: 0.024 | inactive: -0.069 | inactive: 0 | inactive: 0.016 | inactive: 0.057 | inactive: -0.066 | inactive: 0.044 |
| GALT (UniProt P07902) | inactive: 0.005 | inactive: 0.056 | inactive: -0.012 | inactive: -0.082 | inactive: -0.074 | inactive: -0.028 | inactive: -0.091 | inactive: 0.04 | inactive: 0.02 | inactive: 0.017 |
| GFM1 (UniProt Q96RP9) | inactive: 0.059 | inactive: -0.128 | inactive: 0.022 | inactive: -0.102 | inactive: 0.034 | inactive: 0.033 | inactive: 0.023 | inactive: 0.04 | inactive: -0.006 | inactive: 0.042 |
| FOXK1 (UniProt P85037) | inactive: -0.002 | inactive: 0.361 | active: 1 | inactive: -0.123 | inactive: -0.038 | inactive: 0.526 | inactive: 0.516 | inactive: 0.774 | inactive: 0.085 | inactive: 0.584 |
| GAPDH (UniProt P04406) | inactive: 0.042 | inactive: -0.051 | inactive: 0.05 | inactive: 0 | inactive: -0.078 | inactive: -0.065 | inactive: -0.004 | inactive: 0.04 | inactive: 0.01 | inactive: -0.041 |

Some of the entries so far, comma-delimited:
Target,log2 fold change [1],log2 fold change (filanesib),log2 fold change (zotarolimus),log2 fold change (idasanutlin),log2 fold change (alisertib),log2 fold change [2],log2 fold change (gefitinib),log2 fold change [3],log2 fold change (lapatinib),log2 fold change (pictilisib)
GAR1 (UniProt Q9NY12),inactive: -0.064,inactive: 0.376,inactive: 0.03,inactive: 0.209,inactive: -0.067,inactive: -0.003,inactive: 0.002,inactive: -0.095,inactive: 0.023,inactive: -0.091
GALK2 (UniProt Q01415),inactive: -0.03,inactive: -0.046,inactive: -0.011,inactive: -0.073,inactive: -0.054,inactive: -0.012,inactive: 0.005,inactive: 0.068,inactive: -0.027,inactive: 0.088
